Reference: publication PMC4148444, “P. aeruginosa SGNH Hydrolase-Like Proteins AlgJ and AlgX Have Similar Topology but Separate and Distinct Roles in Alginate Acetylation” (PLoS Pathogens, 2014)
No constants are given. Whether binding was seen depends on the method and setting.

Target: Selenomethionine-incorporated Pseudomonas putida AlgJ residues 75-370 (SeMet PpAlgJ75-370), crystallography construct (Pseudomonas putida KT2440) (UniProt Q88ND3)
Assay: crystal structure; SeMet protein, space group C2, two molecules in the asymmetric unit, 1.83 Å; both purified

B1: Selenomethionine-incorporated Pseudomonas putida AlgJ residues 75-370 (SeMet PpAlgJ75-370), crystallography construct (domain or fragment, UniProt Q88ND3 75-370)
chain: NEGRPGVVLGRDQWLFSDEEFKPTAGAEQLMQENLALIRGVRDTLQQHGSQLVLAIVPAKARVYTEYLGKERPASLHDDLYNQFHAQARQANVFAPDLMAPMEQAKARGQVFLRTDTHWTPMGAEVAAQALAEAVSRQSLLNGDPQAFITEAGNTAPYKGDLTNFLPLDPLFSNLLPAPDNLQKRTTRPVDAEGDAGDALFADKQIPVALVGTSYSANPHWNFLGALQQALRSDVANYAEDGHGPLLPMLKYLQSDAFKNAAPQVVVWEFPERYLPMKNDLSSFDPQWIAQLKNSR
modifications: selenomethionine in place of methionine
  binding: no binding
